PubChem BioAssay AID1259254, NCATS – 2017

Aim: 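Genome-wide screen for genes that prevent DNA re-replication in cancer cells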 (primary screen)
Cell system: human HCT116 colorectal cancer cells
Reagents: single siRNA against human genes
Timing: 3 days
Detection: 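Nuclei stained with Hoechst and imaged; cell-cycle phase assigned by DNA content; G2 share scaled per plate, non-targeting siRNA 0%, GMNN siRNA 100%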
Direction: G2 robust z-score and G2 cells, % of GMNN control: higher = more G2 cells, more excess DNA replication; raw share of cells in G2: higher = larger share of cells with G2 DNA content
Rule for the call: 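An siRNA counts as active if its G2 robust z-score lies at least 5 MADs above the screen median; here such calls match roughly 38% of GMNN control or more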
The deposit covers about 59,000 reagents; below is an unselected part. In the full data, about 1,550 (2.6%) got an active call. 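G2 share is only a proxy for re-replication; each gene was hit by three separate siRNAs, and active genes were retested.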 The raw values are shown without normalisation. Unmarked entries are inactive. The numbers tell different reagents against one gene apart. The record does not give: the amount of reagent.

The opening 2 entries, to show the layout:
| gene | siRNA no. | G2 robust z-score | G2 cells, % of GMNN control | raw share of cells in G2 (%) |
| --- | --- | --- | --- | --- |
| FBLL1 (fibrillarin like rRNA 2'-O-methyltransferase 1) | 1 | 1.11 | 10.8 | 8.52 |
| FBLL1 (fibrillarin like rRNA 2'-O-methyltransferase 1) | 2 | -0.39 | 0.22 | 4.06 |

The list itself, from the first entry:
| gene | siRNA no. | G2 robust z-score | G2 cells, % of GMNN control | raw share of cells in G2 (%) |
| --- | --- | --- | --- | --- |
| FBLL1 (fibrillarin like rRNA 2'-O-methyltransferase 1) | 1 | 1.11 | 10.8 | 8.52 |
| FBLL1 (fibrillarin like rRNA 2'-O-methyltransferase 1) | 2 | -0.39 | 0.22 | 4.06 |
| FBLL1 (fibrillarin like rRNA 2'-O-methyltransferase 1) | 3 | -0.944 | -3.67 | 1.65 |
| GTSF1 (gametocyte specific factor 1) | 1 | -0.842 | -2.96 | 0.953 |
| GTSF1 (gametocyte specific factor 1) | 2 | -0.856 | -3.06 | 2.87 |
| GTSF1 (gametocyte specific factor 1) | 3 | 3.73 | 29.2 | 12 |
| PLEKHA8 (pleckstrin homology domain containing A8) | 1 | -0.373 | 0.346 | 4.22 |
| PLEKHA8 (pleckstrin homology domain containing A8) | 2 | -0.21 | 1.49 | 3.9 |
| PLEKHA8 (pleckstrin homology domain containing A8) | 3 | -0.815 | -2.77 | 1.56 |
| MTCL2 (microtubule crosslinking factor 2) | 1 | 0.273 | 4.89 | 6.02 |
| MTCL2 (microtubule crosslinking factor 2) | 2 | -0.0273 | 2.78 | 3.98 |
| MTCL2 (microtubule crosslinking factor 2) | 3 | -0.135 | 2.02 | 3.31 |
| TARS3 (threonyl-tRNA synthetase 3) | 1 | 0.442 | 6.08 | 7.57 |
| TARS3 (threonyl-tRNA synthetase 3) | 2 | -0.401 | 0.149 | 4.54 |
| TARS3 (threonyl-tRNA synthetase 3) | 3 | -0.528 | -0.75 | 5.32 |
| ZFAND2A (zinc finger AN1-type containing 2A) | 1 | 0.343 | 5.38 | 7.28 |
| ZFAND2A (zinc finger AN1-type containing 2A) | 2 | -1.06 | -4.51 | 2.78 |
| ZFAND2A (zinc finger AN1-type containing 2A) | 3 | 1.53 | 13.8 | 12.1 |
| SGMS2 (sphingomyelin synthase 2) | 1 | 2.75 | 22.3 | 10.8 |
| SGMS2 (sphingomyelin synthase 2) | 2 | 0 | 2.97 | 4.2 |
| SGMS2 (sphingomyelin synthase 2) | 3 | -0.332 | 0.631 | 3.75 |
| RIMKLB (ribosomal modification protein rimK like family member B) | 1 | 3.59 | 28.3 | 15.5 |
| RIMKLB (ribosomal modification protein rimK like family member B) | 2 | -0.34 | 0.576 | 4.73 |
| RIMKLB (ribosomal modification protein rimK like family member B) | 3 | 4.85 | 37.1 | 14.8 |
| RNF113B (ring finger protein 113B) | 1 | 0.0525 | 3.34 | 6.1 |
| RNF113B (ring finger protein 113B) | 2 | -0.433 | -0.0781 | 4.67 |
| RNF113B (ring finger protein 113B) | 3 | -0.856 | -3.05 | 4.5 |
| SORCS3 (sortilin related VPS10 domain containing receptor 3) | 1 | 0.0248 | 3.14 | 7.63 |
| SORCS3 (sortilin related VPS10 domain containing receptor 3) | 2 | -1.46 | -7.29 | 1.72 |
| SORCS3 (sortilin related VPS10 domain containing receptor 3) | 3 | -0.69 | -1.89 | 3.22 |
